The numbers were not newly measured in US20020041897A1, “Compositions for sustained release of antineoplastic taxanes, and methods of making and using the same” (priority 2000, published 2002), which cites them from elsewhere.

For the series the following is noted: cited from earlier work.

Structures are written as SMILES.

For the compound `CC(=O)O[C@@]12CO[C@@H]1C[C@H](O)[C@@]1(C)C(=O)[C@H](O)C3=C(C)[C@@H](OC(=O)[C@H](O)[C@@H](NC(=O)OC(C)(C)C)c4ccccc4)C[C@@](O)([C@@H](OC(=O)c4ccccc4)[C@H]21)C3(C)C` [docetaxel], the “solubility in water” value was “poorly soluble in water”.

Regarding `CC(=O)O[C@H]1C(=O)[C@@]2(C)[C@H]([C@H](OC(=O)c3ccccc3)[C@]3(O)C[C@H](OC(=O)[C@H](O)[C@@H](NC(=O)c4ccccc4)c4ccccc4)C(C)=C1C3(C)C)[C@]1(OC(C)=O)CO[C@@H]1C[C@@H]2O` [paclitaxel], the water solubility entry is recorded as “less than 10 μg/mL”.
